Reference: doi:10.64898/2025.12.08.692968
Results are given in words; binding and its absence hold for the method and conditions named. In cells and extracts the contact can be indirect. These calls come from enrichment with a bait or labelling near it, and not all partners need be listed. Where a sequence is shown, tags or fusion partners need not be part of it.

By UniProt entry, the sequences of proteins in these tests, tags left out.
UniProt P23116: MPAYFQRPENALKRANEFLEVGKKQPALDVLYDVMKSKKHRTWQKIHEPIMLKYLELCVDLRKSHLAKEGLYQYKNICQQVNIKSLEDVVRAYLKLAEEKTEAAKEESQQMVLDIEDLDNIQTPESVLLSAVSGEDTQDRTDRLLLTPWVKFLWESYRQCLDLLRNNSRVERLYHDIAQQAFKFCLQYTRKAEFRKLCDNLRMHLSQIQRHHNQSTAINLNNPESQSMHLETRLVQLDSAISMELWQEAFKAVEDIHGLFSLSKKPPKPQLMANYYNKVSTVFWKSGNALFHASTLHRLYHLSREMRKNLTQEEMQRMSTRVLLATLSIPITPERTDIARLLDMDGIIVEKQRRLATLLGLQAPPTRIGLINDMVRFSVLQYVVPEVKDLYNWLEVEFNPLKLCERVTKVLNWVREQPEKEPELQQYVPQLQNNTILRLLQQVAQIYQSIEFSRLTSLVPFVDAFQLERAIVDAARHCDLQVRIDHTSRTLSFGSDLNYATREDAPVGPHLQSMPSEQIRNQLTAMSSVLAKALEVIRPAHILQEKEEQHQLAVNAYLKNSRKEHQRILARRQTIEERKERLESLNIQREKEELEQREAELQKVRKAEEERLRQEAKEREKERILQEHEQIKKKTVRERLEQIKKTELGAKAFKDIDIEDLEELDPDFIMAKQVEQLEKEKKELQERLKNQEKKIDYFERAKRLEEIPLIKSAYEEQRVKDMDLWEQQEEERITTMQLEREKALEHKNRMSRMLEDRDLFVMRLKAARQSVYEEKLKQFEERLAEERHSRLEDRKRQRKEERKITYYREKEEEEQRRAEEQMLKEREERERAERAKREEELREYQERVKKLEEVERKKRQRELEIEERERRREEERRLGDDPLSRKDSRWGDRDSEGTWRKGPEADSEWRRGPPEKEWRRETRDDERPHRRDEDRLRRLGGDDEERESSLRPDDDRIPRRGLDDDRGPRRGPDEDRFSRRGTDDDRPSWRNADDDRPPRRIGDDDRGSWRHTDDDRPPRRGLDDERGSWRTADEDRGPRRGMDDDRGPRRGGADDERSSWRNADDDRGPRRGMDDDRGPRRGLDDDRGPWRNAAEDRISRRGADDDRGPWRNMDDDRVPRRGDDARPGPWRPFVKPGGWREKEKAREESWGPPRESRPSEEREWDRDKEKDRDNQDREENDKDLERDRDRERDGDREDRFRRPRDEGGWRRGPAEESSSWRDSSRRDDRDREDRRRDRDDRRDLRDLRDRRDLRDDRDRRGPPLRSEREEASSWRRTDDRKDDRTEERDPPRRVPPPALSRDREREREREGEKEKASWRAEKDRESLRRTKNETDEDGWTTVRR

T1: TENT5A (Tent5a_Myc) (mouse) (UniProt D3Z5S8)
T1 sequence: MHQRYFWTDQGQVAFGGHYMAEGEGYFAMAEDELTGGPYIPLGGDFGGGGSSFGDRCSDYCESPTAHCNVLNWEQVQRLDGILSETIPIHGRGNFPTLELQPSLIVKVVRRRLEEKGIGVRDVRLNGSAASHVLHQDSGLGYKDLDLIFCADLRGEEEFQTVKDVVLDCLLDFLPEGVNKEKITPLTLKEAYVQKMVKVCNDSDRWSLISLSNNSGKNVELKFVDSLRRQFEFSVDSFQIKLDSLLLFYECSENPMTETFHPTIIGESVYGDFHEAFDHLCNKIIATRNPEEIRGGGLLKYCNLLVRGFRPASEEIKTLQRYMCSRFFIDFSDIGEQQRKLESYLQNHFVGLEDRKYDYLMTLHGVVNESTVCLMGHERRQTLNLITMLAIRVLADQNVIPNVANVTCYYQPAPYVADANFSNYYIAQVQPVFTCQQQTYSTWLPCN


Target: T1, TENT5A (Tent5a_Myc) (mouse)
Experiment: affinity purification with mass spectrometry

| Molecule | binding |
| --- | --- |
| EIF3A translation initiation protein (from UniProt P23116 1-1344) | binds |
| Granulin (GRN) (protein, UniProt P28798 18-589) TQCPDGQFCPVACCLDQGGANYSCCNPLLDTWPRITSHHLDGSCQTHGHCPAGYSCLLTVSGTSSCCPFSKGVSCGDGYHCCPQGFHCSADGKSCFQMSDNPLGAVQCPGSQFECPDSATCCIMVDGSWGCCPMPQASCCEDRVHCCPHGASCDLVHTRCVSPTGTHTLLKKFPAQKTNRAVSLPFSVVCPDAKTQCPDDSTCCELPTGKYGCCPMPNAICCSDHLHCCPQDTVCDLIQSKCLSKNYTTDLLTKLPGYPVKEVKCDMEVSCPEGYTCCRLNTGAWGCCPFAKAVCCEDHIHCCPAGFQCHTEKGTCEMGILQVPWMKKVIAPLRLPDPQILKSDTPCDDFTRCPTNNTCCKLNSGDWGCCPIPEAVCCSDNQHCCPQGFTCLAQGYCQKGDTMVAGLEKIPARQTTPLQIGDIGCDQHTSCPVGQTCCPSLKGSWACCQLPHAVCCEDRQHCCPAGYTCNVKARTCEKDVDFIQPPVLLTLGPKVGNVECGEGHFCHDNQTCCKDSAGVWACCPYLKGVCCRDGRHCCPGGFHCSARGTKCLRKKIPRWDMFLRDPVPRPLL | binds |
| Erlin2 (protein, UniProt Q8BFZ9 1-340) MAQLGAVVAVASSFFCASLFSAVHKIEEGHIGVYYRGGALLTSTSGPGFHLMLPFITSYKSVQTTLQTDEVKNVPCGTSGGVMIYFDRIEVVNFLVPNAVYDIVKNYTADYDKALIFNKIHHELNQFCSVHTLQEVYIELFDQIDENLKLALQQDLTSMAPGLVIQAVRVTKPNIPEAIRRNYELMESEKTKLLIAAQKQKVVEKEAETERKKALIEAEKVAQVAEITYGQKVMEKETEKKISEIEDAAFLAREKAKADAECYTALKIAEANKLKLTPEYLQLMKYKAIASNSKIYFGKDIPNMFMDSAGGLGKQFEGLSDDKLGFGLEDEPLEAPTKEN | binds |
| CPSF7, a cleavage and poly(A)denylation factor (protein, UniProt Q8BTV2 1-471) MSEGVDLIDIYADEEFNQDSEFNNTDQIDLYDDVLTAASQPSDDRSSSTEPPPPVRQEPAPKPNNKTPAILYTYSGLRSRRAAVYVGSFSWWTTDQQLIQVIRSIGVYDVVELKFAENRANGQSKGYAEVVVASENSVHKLLELLPGKVLNGEKVDVRPATRQNLSQFEAQARKRECVRVPRGGIPPRAHSRDSSDSADGRATPSENLVPSSARVDKPPSVLPYFNRPPSALPLMGLPPPPIPPPPPLSSSFGVPPPPPGIHYQHLMPPPPRLPPHLAVPPPGAIPPALHLNPAFFPPPNATVGPPPDTYMKASTPYNHHGSRDSGPPPSTVSEAEFEEIMKRNRAISSSAISKAVSGASAGDYSDAIETLLTAIAVIKQSRVANDERCRVLISSLKDCLHGIEAKSYSVGASGSSSRKRHRSRERSPSRSRESSRRHRDLLHNEDRHDDYFQERNREHERHRDRERDRHH | binds |
